# The list shows a part of the results.
# B1: PhypaEULS3 (Physcomitrella patens) (protein)
# chain: MLPVRLHCKADPNFNLAAVPGQGPVMVPFSPNDDFQVWYKDVTMSTRVKDETGSSAFSLINKATGQALRHAPEDLAQCLLADYDSNALDQTVLWTMSEDMGQGYCCIRLASQITRNLDVFRGDKKSGGVKEGSPVITFAWKKQDNQIWKMITAILEQKLISEEDLNSAVDHHHHHH
# Tests used:
# Experiment in all cases: glycan array binding signal (z-score within array); higher = stronger binding
# Conditions in all cases: glycan notation: IUPAC condensed, linker removed
# [1] = target: Fuc(a1-2)Gal6S(b1-3)GlcNAc6S
# Method in brief: (§1)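 Columns mapping to the same glycan were averaged after glycan names were converted to IUPAC-condensed notation. The data come from 3228 arrays in the Consortium for Functional Glycomics database, limited to those with an available protein sequence. Binding is reported as a within-array Z-score averaged across arrays of one protein sequence and across linkers.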
# [2] = target: Fuc(a1-2)Gal6S(b1-4)Glc
# Method in brief: as §1
# [3] = target: Fuc(a1-2)Gal6S(b1-4)Glc6S
# Method in brief: as §1
# [4] = target: Fuc(a1-2)[Gal(a1-3)]Gal
# Method in brief: as §1
# [5] = target: Fuc(a1-2)[Gal(a1-3)]Gal(b1-3)GalNAc
# Method in brief: as §1
# [6] = target: Fuc(a1-2)[Gal(a1-3)]Gal(b1-3)GalNAc(b1-3)Gal(a1-4)Gal(b1-4)Glc
# Method in brief: as §1
# [7] = target: Fuc(a1-2)[Gal(a1-3)]Gal(b1-3)GlcNAc
# Method in brief: as §1
# [8] = target: Fuc(a1-2)[Gal(a1-3)]Gal(b1-3)GlcNAc(b1-2)Man(a1-3)[Fuc(a1-2)[Gal(a1-3)]Gal(b1-3)GlcNAc(b1-2)Man(a1-6)]Man(b1-4)GlcNAc(b1-4)GlcNAc
# Method in brief: as §1
# [9] = target: Fuc(a1-2)[Gal(a1-3)]Gal(b1-3)GlcNAc(b1-2)Man(a1-3)[Fuc(a1-2)[Gal(a1-3)]Gal(b1-3)GlcNAc(b1-2)Man(a1-6)]Man(b1-4)GlcNAc(b1-4)[Fuc(a1-6)]GlcNAc
# Method in brief: as §1
# [10] = target: Fuc(a1-2)[Gal(a1-3)]Gal(b1-3)GlcNAc(b1-3)GalNAc
# Method in brief: as §1
# [11] = target: Fuc(a1-2)[Gal(a1-3)]Gal(b1-3)GlcNAc(b1-6)GalNAc
# Method in brief: as §1
# [12] = target: Fuc(a1-2)[Gal(a1-3)]Gal(b1-4)Glc
# Method in brief: as §1
# [13] = target: Fuc(a1-2)[Gal(a1-3)]Gal(b1-4)GlcNAc
# Method in brief: as §1
# [14] = target: Fuc(a1-2)[Gal(a1-3)]Gal(b1-4)GlcNAc(b1-2)Man
# Method in brief: as §1
# [15] = target: Fuc(a1-2)[Gal(a1-3)]Gal(b1-4)GlcNAc(b1-2)Man(a1-3)[Fuc(a1-2)[Gal(a1-3)]Gal(b1-4)GlcNAc(b1-2)Man(a1-6)]Man(b1-4)GlcNAc(b1-4)GlcNAc
# Method in brief: as §1
# [16] = target: Fuc(a1-2)[Gal(a1-3)]Gal(b1-4)GlcNAc(b1-2)Man(a1-3)[Fuc(a1-2)[Gal(a1-3)]Gal(b1-4)GlcNAc(b1-2)Man(a1-6)]Man(b1-4)GlcNAc(b1-4)[Fuc(a1-6)]GlcNAc
# Method in brief: as §1
# [17] = target: Fuc(a1-2)[Gal(a1-3)]Gal(b1-4)GlcNAc(b1-3)GalNAc
# Method in brief: as §1
# [18] = target: Fuc(a1-2)[Gal(a1-3)]Gal(b1-4)GlcNAc(b1-3)[Fuc(a1-2)[Gal(a1-3)]Gal(b1-4)GlcNAc(b1-6)]GalNAc
# Method in brief: as §1
# [19] = target: Fuc(a1-2)[Gal(a1-3)]Gal(b1-4)GlcNAc(b1-6)GalNAc
# Method in brief: as §1
# [20] = target: Fuc(a1-2)[Gal(a1-3)]Gal(b1-4)[Fuc(a1-3)]Glc
# Method in brief: as §1
# [21] = target: Fuc(a1-2)[Gal(a1-3)]Gal(b1-4)[Fuc(a1-3)]GlcNAc
# Method in brief: as §1
# [22] = target: Fuc(a1-2)[Gal(a1-3)]Gal(b1-4)[Fuc(a1-3)]GlcNAc(b1-3)GalNAc
# Method in brief: as §1
# [23] = target: Fuc(a1-2)[Gal(a1-4)]Gal(b1-4)GlcNAc
# Method in brief: as §1
# [24] = target: Fuc(a1-2)[GalNAc(a1-3)]Gal
# Method in brief: as §1
# [25] = target: Fuc(a1-2)[GalNAc(a1-3)]Gal(b1-3)GalNAc(a1-3)[Fuc(a1-2)]Gal(b1-4)GlcNAc
# Method in brief: as §1
# [26] = target: Fuc(a1-2)[GalNAc(a1-3)]Gal(b1-3)GalNAc(b1-3)Gal(a1-4)Gal(b1-4)Glc
# Method in brief: as §1
# [27] = target: Fuc(a1-2)[GalNAc(a1-3)]Gal(b1-3)GlcNAc
# Method in brief: as §1
# [28] = target: Fuc(a1-2)[GalNAc(a1-3)]Gal(b1-3)GlcNAc(b1-2)Man(a1-3)[Fuc(a1-2)[GalNAc(a1-3)]Gal(b1-3)GlcNAc(b1-2)Man(a1-6)]Man(b1-4)GlcNAc(b1-4)GlcNAc
# Method in brief: as §1
# [29] = target: Fuc(a1-2)[GalNAc(a1-3)]Gal(b1-3)GlcNAc(b1-2)Man(a1-3)[Fuc(a1-2)[GalNAc(a1-3)]Gal(b1-3)GlcNAc(b1-2)Man(a1-6)]Man(b1-4)GlcNAc(b1-4)[Fuc(a1-6)]GlcNAc
# Method in brief: as §1
# [30] = target: Fuc(a1-2)[GalNAc(a1-3)]Gal(b1-3)GlcNAc(b1-3)GalNAc
# Method in brief: as §1
# [31] = target: Fuc(a1-2)[GalNAc(a1-3)]Gal(b1-3)GlcNAc(b1-6)GalNAc
# Method in brief: as §1
# [32] = target: Fuc(a1-2)[GalNAc(a1-3)]Gal(b1-4)Glc
# Method in brief: as §1
# [33] = target: Fuc(a1-2)[GalNAc(a1-3)]Gal(b1-4)GlcNAc
# Method in brief: as §1
# [34] = target: Fuc(a1-2)[GalNAc(a1-3)]Gal(b1-4)GlcNAc(b1-2)Man
# Method in brief: as §1
# [35] = target: Fuc(a1-2)[GalNAc(a1-3)]Gal(b1-4)GlcNAc(b1-2)Man(a1-3)[Fuc(a1-2)[GalNAc(a1-3)]Gal(b1-4)GlcNAc(b1-2)Man(a1-6)]Man(b1-4)GlcNAc(b1-4)GlcNAc
# Method in brief: as §1
# [36] = target: Fuc(a1-2)[GalNAc(a1-3)]Gal(b1-4)GlcNAc(b1-2)Man(a1-3)[Fuc(a1-2)[GalNAc(a1-3)]Gal(b1-4)GlcNAc(b1-2)Man(a1-6)]Man(b1-4)GlcNAc(b1-4)[Fuc(a1-6)]GlcNAc
# Method in brief: as §1
# [37] = target: Fuc(a1-2)[GalNAc(a1-3)]Gal(b1-4)GlcNAc(b1-3)Gal(b1-4)GlcNAc
# Method in brief: as §1
# [38] = target: Fuc(a1-2)[GalNAc(a1-3)]Gal(b1-4)GlcNAc(b1-3)Gal(b1-4)GlcNAc(b1-3)Gal(b1-4)GlcNAc
# Method in brief: as §1
# [39] = target: Fuc(a1-2)[GalNAc(a1-3)]Gal(b1-4)GlcNAc(b1-3)GalNAc
# Method in brief: as §1
# [40] = target: Fuc(a1-2)[GalNAc(a1-3)]Gal(b1-4)GlcNAc(b1-3)[Fuc(a1-2)[GalNAc(a1-3)]Gal(b1-4)GlcNAc(b1-6)]GalNAc
# Method in brief: as §1
# [41] = target: Fuc(a1-2)[GalNAc(a1-3)]Gal(b1-4)GlcNAc(b1-6)GalNAc
# Method in brief: as §1
# [42] = target: Fuc(a1-2)[GalNAc(a1-3)]Gal(b1-4)[Fuc(a1-3)]GlcNAc
# Method in brief: as §1
# [43] = target: Fuc(a1-2)[GalNAc(a1-3)]Gal(b1-4)[Fuc(a1-3)]GlcNAc(b1-3)GalNAc
# Method in brief: as §1
# [44] = target: Fuc(a1-2)[GalNAc(a1-4)]Gal(b1-4)GlcNAc
# Method in brief: as §1
# [45] = target: Fuc(a1-2)[GalNAc(b1-3)]Gal
# Method in brief: as §1
binder,measurement,setting,value
B1,glycan array binding signal (z-score),[1],3.08
same,glycan array binding signal (z-score),[2],-1.07
same,glycan array binding signal (z-score),[3],1.17
same,glycan array binding signal (z-score),[4],1.05
same,glycan array binding signal (z-score),[5],0.261
same,glycan array binding signal (z-score),[6],-0.063
same,glycan array binding signal (z-score),[7],-0.005
same,glycan array binding signal (z-score),[8],0.581
same,glycan array binding signal (z-score),[9],0.598
same,glycan array binding signal (z-score),[10],0.569
same,glycan array binding signal (z-score),[11],1.08
same,glycan array binding signal (z-score),[12],-1.23
same,glycan array binding signal (z-score),[13],0.471
same,glycan array binding signal (z-score),[14],0.472
same,glycan array binding signal (z-score),[15],-0.394
same,glycan array binding signal (z-score),[16],0.392
same,glycan array binding signal (z-score),[17],-0.824
same,glycan array binding signal (z-score),[18],-0.647
same,glycan array binding signal (z-score),[19],0.22
same,glycan array binding signal (z-score),[20],-1.76
same,glycan array binding signal (z-score),[21],0.806
same,glycan array binding signal (z-score),[22],1.51
same,glycan array binding signal (z-score),[23],0.345
same,glycan array binding signal (z-score),[24],0.168
same,glycan array binding signal (z-score),[25],0.37
same,glycan array binding signal (z-score),[26],0.225
same,glycan array binding signal (z-score),[27],1.23
same,glycan array binding signal (z-score),[28],0.618
same,glycan array binding signal (z-score),[29],1.68
same,glycan array binding signal (z-score),[30],0.893
same,glycan array binding signal (z-score),[31],0.713
same,glycan array binding signal (z-score),[32],0.483
same,glycan array binding signal (z-score),[33],-0.027
same,glycan array binding signal (z-score),[34],0.82
same,glycan array binding signal (z-score),[35],-0.46
same,glycan array binding signal (z-score),[36],0.52
same,glycan array binding signal (z-score),[37],-0.839
same,glycan array binding signal (z-score),[38],-0.951
same,glycan array binding signal (z-score),[39],0.058
same,glycan array binding signal (z-score),[40],1.04
same,glycan array binding signal (z-score),[41],0.589
same,glycan array binding signal (z-score),[42],0.924
same,glycan array binding signal (z-score),[43],0.007
same,glycan array binding signal (z-score),[44],-0.967
same,glycan array binding signal (z-score),[45],-1.84

# Four records drawn at random from those above, as already listed:
binder,measurement,setting,value
B1,glycan array binding signal (z-score),[27],1.23
same,glycan array binding signal (z-score),[18],-0.647
same,glycan array binding signal (z-score),[1],3.08
same,glycan array binding signal (z-score),[5],0.261
